From the supplement of paper PMC6078165

Tested on: MDAMB231
Experiment: relative JC-1 red fluorescence (viability) vs pre-drug, coculture with fibroblast (fraction); higher = more viable cancer cells
Method: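 JC-1 labelled TNBC cells cocultured 1:1 (1,500 cells each) with CellTrace Violet stained primary or stromal fibroblasts in 384-well plates in FluoroBrite medium, treated with one of 42 anticancer drugs at 0.1, 1, 10 or 100 uM. JC-1 red fluorescence (mitochondrial integrity in cancer cells only) was read by plate reader every 8 h for 72 h. Values are normalised to each well's pre-drug value. The stock of one drug was tenfold lower, so its dose labels may be too high.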

CC[C@]1(O)C[C@H]2CN(CCc3c([nH]c4ccccc34)[C@@](C(=O)OC)(c3cc4c(cc3OC)N(C=O)[C@H]3[C@@](O)(C(=O)OC)[C@H](OC(C)=O)[C@]5(CC)C=CCN6CC[C@]43[C@@H]65)C2)C1 [Vincristine]
relative JC-1 red fluorescence
Conditions | 8 h | 16 h | 24 h | 32 h | 40 h | 48 h | 56 h | 64 h | 72 h
10 µM, coculture fibroblast: C12385 | 0.767 ± 0.015 | 0.756 ± 0.014 | 0.663 ± 0.025 | 0.69 ± 0.02 | 0.642 ± 0.016 | 0.611 ± 0.016 | 0.568 ± 0.019 | 0.565 ± 0.0059 | 0.546 ± 0.0089
10 µM, coculture fibroblast: H6013 | 0.899 ± 0.0045 | 0.85436 ± 0.00028 | 0.81352 ± 0.00073 | 0.79376 ± 0.00031 | 0.746 ± 0.014 | 0.7121 ± 0.0032 | 0.6919 ± 3e-05 | 0.6703 ± 0.004 | 0.6319 ± 0.0031
10 µM, coculture fibroblast: H6019 | 0.783 ± 0.025 | 0.742 ± 0.0038 | 0.721 ± 0.047 | 0.712 ± 0.029 | 0.674 ± 0.032 | 0.673 ± 0.044 | 0.643 ± 0.052 | 0.667 ± 0.069 | 0.658 ± 0.066
10 µM, coculture fibroblast: H6076 | 0.87107 ± 0.00077 | 0.8022 ± 0.0062 | 0.771 ± 0.014 | 0.747 ± 0.02 | 0.718 ± 0.035 | 0.697 ± 0.041 | 0.676 ± 0.04 | 0.671 ± 0.043 | 0.675 ± 0.049
10 µM, coculture fibroblast: H6231 | 0.901 ± 0.052 | 0.798 ± 0.054 | 0.75 ± 0.035 | 0.713 ± 0.031 | 0.662 ± 0.033 | 0.636 ± 0.035 | 0.608 ± 0.025 | 0.597 ± 0.019 | 0.573 ± 0.0077
10 µM, coculture fibroblast: HADF | 0.889 ± 0.0099 | 0.871 ± 0.021 | 0.827 ± 0.019 | 0.8 ± 0.017 | 0.761 ± 0.0047 | 0.714 ± 0.0091 | 0.6834 ± 0.0028 | 0.659 ± 0.0042 | 0.6134 ± 0.0012
10 µM, coculture fibroblast: HCFa | 0.8837 ± 0.0054 | 0.8377 ± 0.0065 | 0.801 ± 0.027 | 0.7642 ± 0.0049 | 0.713 ± 0.011 | 0.674 ± 0.017 | 0.644 ± 0.015 | 0.6132 ± 0.0014 | 0.582 ± 0.011
10 µM, coculture fibroblast: HCPF | 0.858 ± 0.0018 | 0.779 ± 0.019 | 0.734 ± 0.027 | 0.708 ± 0.031 | 0.665 ± 0.031 | 0.62 ± 0.021 | 0.596 ± 0.02 | 0.566 ± 0.015 | 0.546 ± 0.0055
10 µM, coculture fibroblast: HHSteC | 0.90301 ± 0.00034 | 0.866 ± 0.028 | 0.818 ± 0.04 | 0.779 ± 0.034 | 0.738 ± 0.042 | 0.693 ± 0.049 | 0.658 ± 0.046 | 0.622 ± 0.037 | 0.583 ± 0.019
10 µM, coculture fibroblast: HMF | 0.871 ± 0.018 | 0.823 ± 0.016 | 0.7922 ± 0.0034 | 0.7673 ± 0.0073 | 0.737 ± 0.011 | 0.706 ± 0.0065 | 0.6719 ± 0.0046 | 0.662 ± 0.015 | 0.641 ± 0.026
10 µM, coculture fibroblast: HPFa | 0.946 ± 0.0098 | 0.9244 ± 0.0036 | 0.877 ± 0.016 | 0.824 ± 0.014 | 0.801 ± 0.018 | 0.765 ± 0.021 | 0.712 ± 0.018 | 0.675 ± 0.016 | 0.633 ± 0.025
10 µM, coculture fibroblast: HUF | 0.861 ± 0.013 | 0.771 ± 0.014 | 0.833 ± 0.044 | 0.717 ± 0.013 | 0.665 ± 0.021 | 0.661 ± 0.033 | 0.619 ± 0.044 | 0.636 ± 0.049 | 0.638 ± 0.047
10 µM, coculture fibroblast: Hs5 | 0.902 ± 0.054 | 0.841 ± 0.039 | 0.7905 ± 0.0039 | 0.75 ± 0.013 | 0.706 ± 0.032 | 0.649 ± 0.043 | 0.61 ± 0.054 | 0.589 ± 0.068 | 0.574 ± 0.07
10 µM, coculture fibroblast: Hs27A | 0.913 ± 0.017 | 0.8519 ± 0.0018 | 0.80679 ± 0.00023 | 0.776 ± 0.0092 | 0.7179 ± 0.0035 | 0.6501 ± 0.00091 | 0.644 ± 0.0073 | 0.617 ± 0.013 | 0.571 ± 0.017
10 µM, coculture fibroblast: Hs343T | 0.857 ± 0.037 | 0.788 ± 0.064 | 0.742 ± 0.06 | 0.692 ± 0.063 | 0.65 ± 0.055 | 0.61 ± 0.051 | 0.56 ± 0.038 | 0.541 ± 0.034 | 0.509 ± 0.031
10 µM, coculture fibroblast: WS1 | 0.793 ± 0.039 | 0.783 ± 0.019 | 0.73 ± 0.11 | 0.718 ± 0.062 | 0.683 ± 0.075 | 0.657 ± 0.078 | 0.614 ± 0.082 | 0.605 ± 0.091 | 0.583 ± 0.079
100 µM, coculture fibroblast: C12385 | 0.755 ± 0.015 | 0.78 ± 0.018 | 0.693 ± 0.049 | 0.764 ± 0.04 | 0.735 ± 0.038 | 0.734 ± 0.066 | 0.708 ± 0.07 | 0.707 ± 0.092 | 0.698 ± 0.1
100 µM, coculture fibroblast: H6013 | 0.9286 ± 0.0043 | 0.907 ± 0.014 | 0.88 ± 0.024 | 0.892 ± 0.016 | 0.868 ± 0.012 | 0.849 ± 0.013 | 0.8438 ± 0.0014 | 0.8282 ± 0.0051 | 0.803 ± 0.0084
100 µM, coculture fibroblast: H6019 | 0.8003 ± 0.0016 | 0.793 ± 0.0099 | 0.774 ± 0.041 | 0.802 ± 0.051 | 0.795 ± 0.073 | 0.806 ± 0.072 | 0.8 ± 0.089 | 0.818 ± 0.084 | 0.804 ± 0.078
100 µM, coculture fibroblast: H6076 | 0.94 ± 0.035 | 0.907 ± 0.04 | 0.88 ± 0.025 | 0.861 ± 0.047 | 0.838 ± 0.051 | 0.8 ± 0.05 | 0.772 ± 0.042 | 0.774 ± 0.038 | 0.771 ± 0.038
100 µM, coculture fibroblast: H6231 | 0.904 ± 0.019 | 0.902 ± 0.045 | 0.791 ± 0.14 | 0.8815 ± 0.0078 | 0.821 ± 0.0086 | 0.786 ± 0.011 | 0.726 ± 0.026 | 0.771 ± 0.06 | 0.798 ± 0.13
100 µM, coculture fibroblast: HADF | 0.92 ± 0.0048 | 0.9038 ± 0.0029 | 0.897 ± 0.019 | 0.888 ± 0.014 | 0.87 ± 0.017 | 0.8083 ± 0.0055 | 0.8022 ± 0.0028 | 0.7826 ± 0.0033 | 0.731 ± 0.0089
100 µM, coculture fibroblast: HCFa | 0.9217 ± 0.0034 | 0.8839 ± 0.0062 | 0.878 ± 0.026 | 0.868 ± 0.033 | 0.818 ± 0.03 | 0.772 ± 0.025 | 0.742 ± 0.02 | 0.724 ± 0.034 | 0.694 ± 0.032
100 µM, coculture fibroblast: HCPF | 0.9252 ± 0.004 | 0.8607 ± 0.0038 | 0.837 ± 0.016 | 0.824 ± 0.0083 | 0.787 ± 0.0038 | 0.754 ± 0.011 | 0.7218 ± 0.0068 | 0.704 ± 0.014 | 0.686 ± 0.024
100 µM, coculture fibroblast: HHSteC | 0.938 ± 0.016 | 0.9099 ± 0.0011 | 0.904 ± 0.013 | 0.9104 ± 0.007 | 0.8671 ± 0.002 | 0.8522 ± 0.0013 | 0.8213 ± 0.0029 | 0.8088 ± 0.0068 | 0.782 ± 0.0099
100 µM, coculture fibroblast: HMF | 0.957 ± 0.016 | 0.94029 ± 0.00031 | 0.924 ± 0.029 | 0.918 ± 0.037 | 0.883 ± 0.047 | 0.86 ± 0.045 | 0.82 ± 0.06 | 0.798 ± 0.074 | 0.772 ± 0.079
100 µM, coculture fibroblast: HPFa | 0.963 ± 0.012 | 0.962 ± 0.014 | 0.93 ± 0.019 | 0.896 ± 0.027 | 0.863 ± 0.02 | 0.827 ± 0.026 | 0.787 ± 0.033 | 0.779 ± 0.034 | 0.739 ± 0.023
100 µM, coculture fibroblast: HUF | 0.8861 ± 0.0019 | 0.836 ± 0.017 | 0.866 ± 0.015 | 0.794 ± 0.025 | 0.758 ± 0.032 | 0.742 ± 0.039 | 0.707 ± 0.044 | 0.711 ± 0.021 | 0.703 ± 0.014
100 µM, coculture fibroblast: Hs5 | 0.9356 ± 0.0073 | 0.893 ± 0.013 | 0.879 ± 0.02 | 0.859 ± 0.025 | 0.833 ± 0.034 | 0.783 ± 0.046 | 0.746 ± 0.048 | 0.719 ± 0.037 | 0.702 ± 0.039
100 µM, coculture fibroblast: Hs27A | 0.933 ± 0.024 | 0.917 ± 0.033 | 0.889 ± 0.042 | 0.885 ± 0.042 | 0.835 ± 0.038 | 0.761 ± 0.033 | 0.786 ± 0.015 | 0.768 ± 0.035 | 0.733 ± 0.032
100 µM, coculture fibroblast: Hs343T | 0.948 ± 0.012 | 0.902 ± 0.023 | 0.867 ± 0.015 | 0.856 ± 0.014 | 0.822 ± 0.011 | 0.777 ± 0.03 | 0.718 ± 0.037 | 0.708 ± 0.042 | 0.683 ± 0.038
100 µM, coculture fibroblast: WS1 | 0.7837 ± 0.0074 | 0.789 ± 0.02 | 0.7068 ± 0.0053 | 0.733 ± 0.022 | 0.722 ± 0.026 | 0.708 ± 0.018 | 0.679 ± 0.029 | 0.667 ± 0.023 | 0.648 ± 0.013

± gives the standard deviation of the averaged measurements. Values are relative to the signal before dosing, not to a vehicle control; the signal also falls without drug.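 Fibroblast labels name human fibroblasts: mostly primary ones from tissues such as uterus (C12385, HUF), lung (H6013), bone (Hs27A), adrenal (HADF) and skin (WS1), plus mammary HMF and breast cancer-associated Hs343T. The cancer cells are basal-like or mesenchymal-like triple-negative breast cancer lines. The paper calls a changed response a hit when it shifts by more than 3x the replicate standard deviation. The tissue of the other fibroblasts is not given here.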
